According to PubChem BioAssay AID248 (DTP/NCI, 2004):
The list is a part of this screen's results and no random one: it gathers tests that were run many times, whatever their T/C, doses with no T/C, and many T/C values between a quarter and a half above the control. Further doses and runs are listed elsewhere. T/C: endpoint of the treated group in % of that of the vehicle group. Some entries give survivors of the animals treated and no T/C: the source holds a T/C of zero for them, seemingly a mark for toxic or unscored doses. Some survivor counts are full or nearly so, which does not show that the dose was tolerated: survival well below the control is almost never listed, so the zero probably covers shortened survival too. Counts of survivors are from the toxicity check (mostly the fifth day) where no day follows; animals may have died later. Schedules are NCI's codes, taken here to give the interval after Q, in days (D) or hours (H), and the number of doses after X.

Tested on: L1210 leukemia ip in BDF1 mice, survival T/C
Assay: NCI In Vivo Anticancer Drug Screen. Data for tumor model L1210 Leukemia (intraperitoneal) in B6D2F1 (BDF1) mice
Details: T/C endpoint: mean survival time, higher T/C = longer survival
[1] = dose: 200.0 mg/kg/injection, schedule: Q04DX003 (ip), vehicle: saline with Tween-80
[2] = dose: 400.0 mg/kg/injection, schedule: Q04DX003 (ip), vehicle: saline with Tween-80
[3] = dose: 200.0 mg/kg/injection, schedule: Q01DX009 (ip), vehicle: Klucel (hydroxypropylcellulose) (HPC)
[4] = dose: 400.0 mg/kg/injection, schedule: Q01DX001 (ip), vehicle: Klucel (hydroxypropylcellulose) (HPC)
[5] = dose: 200.0 mg/kg/injection, schedule: Q01DX001 (ip), vehicle: saline
[6] = dose: 400.0 mg/kg/injection, schedule: Q01DX001 (ip), vehicle: saline

SMILES: C=C(Br)CNC(=O)NCC
- survivor count [1]: 3 of 6
- survivor count [2]: 0 of 6

SMILES: CC(C)CCc1c(N)nc(N)nc1N
- survivor count (dose: 100.0 mg/kg/injection, schedule: Q04DX003 (ip), vehicle: Klucel (hydroxypropylcellulose) (HPC)): 2 of 6
- survivor count (dose: 200.0 mg/kg/injection, schedule: Q04DX003 (ip), vehicle: Klucel (hydroxypropylcellulose) (HPC)): 0 of 6
- survivor count (dose: 400.0 mg/kg/injection, schedule: Q04DX003 (ip), vehicle: Klucel (hydroxypropylcellulose) (HPC)): 0 of 6

SMILES: c1ccc2c(c1)CCc1ccccc1CN(CCNC1=NCCN1)C2
- survivor count (dose: 100.0 mg/kg/injection, schedule: Q01DX009 (ip), vehicle: Klucel (hydroxypropylcellulose) (HPC)): 0 of 6
- survivor count [3]: 0 of 6
- survivor count (dose: 400.0 mg/kg/injection, schedule: Q01DX009 (ip), vehicle: Klucel (hydroxypropylcellulose) (HPC)): 0 of 6

SMILES: O=c1cnc2ccccc2[nH]1
- survivor count [2]: 3 of 3

SMILES: CCc1ccc(N)cc1
- survivor count (dose: 75.0 mg/kg/injection, schedule: Q01DX001 (ip), vehicle: saline): 2 of 6
- survivor count (dose: 150.0 mg/kg/injection, schedule: Q01DX001 (ip), vehicle: saline): 0 of 6
- survivor count (dose: 300.0 mg/kg/injection, schedule: Q01DX001 (ip), vehicle: saline): 0 of 6

SMILES: CC(C)C(C#N)(CCCCN1CCCC1)c1cccc2ccccc12 (stereo not given)
- survivor count [1]: 4 of 6
- survivor count [2]: 0 of 6

SMILES: Cn1[nH]c(NC=O)c2cc3c(=O)[nH]c(=O)cc3nc21
- survivor count [4]: 5 of 6

SMILES: c1ccc2c(c1)ccc1nc3ccc4ccccc4c3cc12
- survivor count (dose: 10.0 mg/kg/injection, schedule: Q01DX001 (ip), vehicle: saline): 3 of 4
- survivor count (dose: 100.0 mg/kg/injection, schedule: Q01DX001 (ip), vehicle: saline): 4 of 4
- survivor count [5]: 4 of 4
- survivor count [6]: 4 of 4

SMILES: Clc1nc2ccccc2nc1C(Cl)Cl
- survivor count [4]: 3 of 6

SMILES: Cc1cccc(N2C(=O)CSC2=S)c1
- survivor count (dose: 50.0 mg/kg/injection, schedule: Q01DX009 (ip), vehicle: saline with Tween-80): 6 of 6
- survivor count (dose: 100.0 mg/kg/injection, schedule: Q01DX009 (ip), vehicle: saline with Tween-80): 6 of 6
- survivor count (dose: 200.0 mg/kg/injection, schedule: Q01DX009 (ip), vehicle: saline with Tween-80): 6 of 6
- survivor count (dose: 400.0 mg/kg/injection, schedule: Q01DX009 (ip), vehicle: saline with Tween-80): 6 of 6

SMILES: Cc1cc(C)c(O)c(CN(C)C)c1.[Cu+2]
- survivor count [5]: 0 of 4
- survivor count [6]: 0 of 4

SMILES: CCC12CCCN3C(=O)CC(C(=O)CC1)C32 (stereo not given)
- survivor count (dose: 200.0 mg/kg/injection, schedule: Q04DX003 (ip), vehicle: saline): 2 of 6
- survivor count (dose: 400.0 mg/kg/injection, schedule: Q04DX003 (ip), vehicle: saline): 0 of 6

SMILES: CC1(C)CCCC(Br)C1=O (stereo not given)
- survivor count [3]: 3 of 3

SMILES: CC1CC(C)NC(=S)N1 (stereo not given)
- survivor count (dose: 400.0 mg/kg/injection, schedule: Q04DX002 (ip), vehicle: saline with Tween-80): 2 of 3

SMILES: O=c1scc(-c2ccc(Br)cc2)s1
- survivor count (dose: 100.0 mg/kg/injection, schedule: Q04DX002 (ip), vehicle: Klucel (hydroxypropylcellulose) (HPC)): 1 of 3
- survivor count (dose: 200.0 mg/kg/injection, schedule: Q04DX002 (ip), vehicle: Klucel (hydroxypropylcellulose) (HPC)): 0 of 3
- survivor count (dose: 400.0 mg/kg/injection, schedule: Q04DX002 (ip), vehicle: Klucel (hydroxypropylcellulose) (HPC)): 0 of 3

SMILES: COc1ccc(C)c(CN(C)C)c1
- survivor count [5]: 2 of 4
- survivor count [6]: 0 of 4
